{"source": "patent US20100249419A1", "about": "“UTILIZATION OF NOVEL COMPOUNDS WITH AMYLOID AFFINITY AND METHOD OF PRODUCING THE SAME” (NIHON MEDI-PHYSICS CO., LTD., priority 2007, published 2010)", "note": "Some compounds share one wording; it may come from a single statement.", "data": [{"test_system": "aggregated Aβ (Aβ1-42) injected into amygdaloid nucleus", "assay": "Confirmation of imaging of amyloid in brain (ex vivo autoradiogram, Aβ1-42)", "design": "species or system male Wistar rat", "details": "brain slice 60 minutes after tail vein injection", "method": "The following experiment was carried out in order to examine whether amyloid in brain can be imaged by the compound of the present invention.\n(1) Aβ1-42 (manufactured by Wako) was dissolved in phosphate buffer (pH 7.4) and shaken at 37° C. for 72 hours, to obtain a 1 mg/mL suspension of aggregated Aβ (hereinafter referred to as amyloid suspension in the Examples).\n(2) 2.5 μL (corresponding to […]) of the amyloid suspension was injected into an amygdaloid nucleus on one side of a male Wistar rat (7-week old). As a control, 2.5 μL of a phosphate buffered physiological saline solution (pH 7.4) was injected into an amygdaloid nucleus on the other side of the rat. The rats were examined 1 day after the injection of the amyloid suspension and the phosphate buffered physiological saline solution (pH 7.4).\n(3) Compound 1 was dissolved in a 10 mg/mL ascorbic acid-containing physiological saline solution to obtain a sample solution (22 MBq/mL in radioactivity concentration in the sample solution). This solution was injected under thiopental anesthesia into the rat through the tail vein (dosage: 0.5 mL, dosed radioactivity: 11-13 MBq equivalent).\n(4) Brain was removed 60 minutes after the injection to prepare a brain slice of 10 μm in thickness with a microtome (type: CM3050S, manufactured by LEICA). The brain slice was exposed to an imaging plate for 20 hours, and then image analysis was carried out by use of a Bio-imaging Analyzer (type: BAS-2500; manufactured by FUJIFILM Corporation).\n(5) After the completion of the image analysis using the Bio-imaging Analyzer, […]\nThus, it was confirmed that amyloid was deposited on the slice (FIG. 6b).\nThe same procedures as in Example 12 were performed except using a solution of Compound 2 in a 10 mg/mL ascorbic acid as a sample solution (the radioactive concentration of the sample solution was 25 MBq/mL).\n(1) Aβ1-42 (manufactured by Wako) was dissolved in phosphate buffer (pH 7.4) and shaken at 37° C. for 72 hours, to obtain 1 mg/mL of a suspension of aggregated Aβ (hereinafter referred to as amyloid suspension in the Examples).\n(3) A sample solution (30 MBq/mL in radioactivity concentration, Example 24) in which Compound 4 was dissolved in a 10 mg/mL ascorbic acid-containing physiological saline solution and a sample solution (30 MBq/mL in radioactivity concentration, Example 25) in which Compound 6 was dissolved in a 10 mg/mL ascorbic acid-containing physiological saline solution were prepared. This solution was injected under thiopental anesthesia into the rat through the tail vein (dosage: 0.5 mL, dosed radioactivity: 11-15 MBq equivalent).\nThus, it was confirmed that amyloid was deposited on the slice (FIG. 12 and FIG. 13).", "values": [{"substance": "2-(4′-ethoxyphenyl)-6-[^123I]iodoimidazo[1,2-a]pyridine [Compound 2]", "Accumulation of radioactivity at sites other than amyloid injected sites": "some radioactive accumulation in sites other than amyloid injected sites", "Accumulation of radioactivity in amygdaloid nucleus on the physiological saline-injected side": "no significant accumulation of radioactivity"}, {"substance": "2-[3′-(2″-hydroxyethoxy)phenyl]-6-[^123I]iodoimidazo[1,2-a]pyridine [Compound 4]", "Accumulation of radioactivity at sites other than amyloid injected sites": "little accumulation of radioactivity was observed at sites other than the site to which amyloid was injected", "Accumulation of radioactivity in amygdaloid nucleus on the physiological saline-injected side": "no significant accumulation of radioactivity"}, {"substance": "2-[4′-(3″-hydroxypropoxy)phenyl]-6-[^123I]iodoimidazo[1,2-a]pyridine [Compound 6]", "Accumulation of radioactivity at sites other than amyloid injected sites": "little accumulation of radioactivity was observed at sites other than the site to which amyloid was injected", "Accumulation of radioactivity in amygdaloid nucleus on the physiological saline-injected side": "no significant accumulation of radioactivity"}, {"substance": "2-[4′-(2″-hydroxyethoxy)phenyl]-6-[^123I]iodoimidazo[1,2-a]pyridine [Compound 1]", "Accumulation of radioactivity at sites other than amyloid injected sites": "little radioactive accumulation at the sites other than amyloid injected sites", "Accumulation of radioactivity in amygdaloid nucleus on the physiological saline-injected side": "no significant accumulation of radioactivity"}]}]}
